Patent US6372209B1, “Vaginal lactobacillus medicant” (Gyne Logix, Inc., priority 1997, dated 2002)
Where two headings read alike, the source gives them in different places. At least one compound was matched to its structure with a doubt left.

Test system: women with recurrent bacterial vaginosis

CCC[C@@H]1C[C@@H](C(=O)N[C@@H]([C@H]2O[C@H](SC)[C@H](O)[C@@H](O)[C@H]2O)[C@H](C)Cl)N(C)C1 [Clindamycin]
identity of Lactobacilli present after treatment with the suppository strain (DNA hybridization under high stringency, enzyme fingerprint): none of the women acquired a Lactobacillus strain which was identical to the suppository
Women Free of Bacterial Vaginosis, number/evaluated (One month post treatment): 8/15
Women Free of Bacterial Vaginosis, number/evaluated (One week post treatment): 13/15
Women Free of Bacterial Vaginosis, number/evaluated (Three months post treatment): 4/15
